# Results as given in PubChem BioAssay AID504834 (National Center for Advancing Translational Sciences (NCATS), 2011).
# The whole screen tested about 320,000 compounds, of which about 22,000 (6.9%) were called active. Inconclusive results, whose numbers are uncertain, are shown with a selection of clear calls. Calls come from the whole dose curve; as a rule, active = well fitted inhibition curve with a large enough effect; inconclusive = small, poorly fitted or top-dose-only effect, or another doubt; inactive = no such curve, though single readings can be large or run the other way. Potencies of inconclusive entries are doubtful fits and often do not repeat.
# Experiment: Primary qHTS for delayed death inhibitors of the malarial parasite plastid, 96 hour incubation
# Conditions: P. falciparum luciferase reporter growth; series mostly up to 28.7 µM; activity change, negative = inhibition: at the top concentration
# Summary of the method: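 P. falciparum expressing integrated firefly luciferase grown in erythrocytes (2% hematocrit, 0.05% parasitemia final) with compounds for 96 hours at 37 C, 5% CO2. Growth inhibition read as loss of luminescence after adding luciferase detection reagent.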
# % is set by controls: 0 for no effect and ±100 for the full control effect; potency is the fitted concentration of half-maximal effect.
SMILES,Potency,"activity change, negative = inhibition"
Cc1ccc(C(=O)Nc2ccon2)cc1S(=O)(=O)N1CCCCCC1,"inconclusive: 10.4 µM [inhibitor, single point]",–
N#Cc1cc(Oc2ccc3ccccc3c2)c(-n2nnc3ccccc32)cc1C#N,"inconclusive: 8.28 µM [inhibitor, partial curve, poor fit]",–
O=C(Nc1ccc2nc3n(c(=O)c2c1)CCCC3)c1cccc([N+](=O)[O-])c1,"inconclusive: 5.22 µM [inhibitor, partial curve, poor fit]",–
CC(=O)Nc1ccc2nc(NC(=O)c3ccco3)sc2c1,"inconclusive: 18.5 µM [inhibitor, single point]",–
COc1ccccc1C(=O)Nc1ccc2c(c1)nc1n2CCN(Cc2ccccc2)C1,"inconclusive: 18.5 µM [inhibitor, single point]",–
O=C(NCc1cccs1)C1CCN(C(=O)NCc2ccccc2)CC1,"inconclusive: 2.33 µM [inhibitor, partial curve, poor fit]",–
Cc1ccc(SCCNC(=O)c2ccccc2)cc1,"inconclusive: 0.738 µM [inhibitor, full curve, poor fit]",–
Cc1ccc(C2CN(c3ccccc3)CC2C(=O)c2ccc(F)cc2)cc1 (stereo not given),"inconclusive: 11.7 µM [inhibitor, partial curve]",–
Cc1ccc(S(=O)(=O)n2nc(OC(=O)C(C)(C)C)cc2N)cc1,–,inactive: 0%
O=C(O)CC(Cn1cnnn1)c1ccccc1 (stereo not given),"inconclusive: 3.7 µM [inhibitor, partial curve, poor fit]",–
Nc1ccc(S(=O)(=O)c2ccc(N)c(N)c2)cc1,"inconclusive: 18.5 µM [inhibitor, single point]",–
O=C(NC1CCCCC1)C1CCC(CNS(=O)(=O)c2ccccc2)CC1 (stereo not given),–,inactive: 17%
O=C(Nc1ccc(F)cc1)c1cc(S(=O)(=O)N2CCOCC2)cs1,active: 11.7 µM,–
Cc1cc(C)nc(SCc2nnc(SCC(N)=O)n2Cc2ccco2)n1,"inconclusive: 0.208 µM [inhibitor, partial curve, poor fit]",–
CCN1CCN(c2cc(C)c3cc(NC(=S)NCc4cccs4)ccc3n2)CC1,"inconclusive: 10.4 µM [inhibitor, single point]",–
CC1=C(C#N)C(c2cccnc2)C2=C(N1)c1ccccc1C2=O (stereo not given),–,inactive: 0.786%
COc1ccc2oc(=O)cc(CN(C)Cc3ccccc3)c2c1,"inconclusive: 0.329 µM [inhibitor, full curve]",–
COc1ccc(CN2CC(C(=O)NCCCN3CCOCC3)CC2=O)cc1 (stereo not given),"inconclusive: 18.5 µM [inhibitor, single point]",–
COc1ccc(-c2nc3n(n2)C(=O)CC(c2ccco2)S3)cc1 (stereo not given),–,inactive: 15.7%
CCCCNCc1nc2ccccc2c(=O)[nH]1,–,inactive: 28.3%
Cc1cc2nc(-c3ccc(SCC(=O)Nc4nccs4)nc3)[nH]c2cc1C,"inconclusive: 18.5 µM [inhibitor, single point]",–
Cc1cccc(/C=C/c2onc(C)c2S(=O)(=O)N2CCC(C(=O)N3CCC(C)CC3)CC2)c1,"inconclusive: 18.5 µM [inhibitor, single point]",–
C/C(CC(=O)NCc1ccco1)=N\NC(=O)c1ccc(Cl)cc1Cl,"inconclusive: 9.28 µM [inhibitor, single point]",–
COc1ccc(CCN2C(=O)C3C4CCC(C4=C(C)C)C3C2=O)cc1OC (stereo not given),"inconclusive: 18.5 µM [inhibitor, single point]",–

# As entered above:
# In activity change, negative = inhibition, O=C(NC1CCCCC1)C1CCC(CNS(=O)(=O)c2ccccc2)CC1 (stereo not given) shows inactive: 17%
# In Potency, O=C(Nc1ccc(F)cc1)c1cc(S(=O)(=O)N2CCOCC2)cs1 shows active: 11.7 µM

# Reprinted at random: two records from the list
SMILES,Potency,"activity change, negative = inhibition"
O=C(Nc1ccc2nc3n(c(=O)c2c1)CCCC3)c1cccc([N+](=O)[O-])c1,"inconclusive: 5.22 µM [inhibitor, partial curve, poor fit]",–
Cc1cccc(/C=C/c2onc(C)c2S(=O)(=O)N2CCC(C(=O)N3CCC(C)CC3)CC2)c1,"inconclusive: 18.5 µM [inhibitor, single point]",–

# (continued)

SMILES,Potency,"activity change, negative = inhibition"
COC(=O)c1ccc(OCC(O)CN(CC(C)C)CC(C)C)cc1 (stereo not given),"inconclusive: 0.465 µM [inhibitor, full curve, poor fit]",–
O=C(/C=C/c1cccs1)c1ccc(NC(=O)c2ccccc2F)cc1,–,inactive: 18.4%
O=C(O)c1cccc(Cn2c(Cl)c(/C=N/Nc3ccccc3)sc2=O)c1,"inconclusive: 18.5 µM [inhibitor, single point]",–
CCCCNC(=O)CCCN1C(=O)c2cccnc2Sc2ccccc21,"inconclusive: 10.4 µM [inhibitor, single point]",–
CC1=C(C(=O)N2CCc3ccccc32)C2(CCC(C)CC2)OC1=O (stereo not given),"inconclusive: 11.7 µM [inhibitor, partial curve, poor fit]",–
CCc1ccccc1NC(=O)CN(c1ccc(OC)cc1OC)S(=O)(=O)c1ccccc1[N+](=O)[O-],"inconclusive: 7.38 µM [inhibitor, partial curve, poor fit]",–
Cc1ccc(CN2C3CCCC2CC(NC(=S)NCc2ccccc2)C3)cc1 (stereo not given),–,inactive: 0%
CCc1[nH]nc(C(=O)NC2CCCN(Cc3ccccc3F)C2)c1C (stereo not given),active: 13.1 µM,–
O=C(c1ccc(N2CCCC2)c([N+](=O)[O-])c1)N1CCc2ccccc2C1,–,inactive: -9.15%
O=C(O)c1ccc(S(=O)(=O)c2ccc3c(c2)C(=O)N(NC(=O)c2ccncc2)C3=O)cc1,–,inactive: 13.9%
Cc1ccc(C)c(NC(=O)CN(C)C(=O)Cn2c(=O)oc3ccccc32)c1,–,inactive: 8.9%
CCOC(=O)c1cc(NC(=O)SCC(=O)O)c(C)nc1C,active: 7.38 µM,–
COC(=O)C1=C(C)N(Cc2ccccc2)C(=NCCCCO)N[C@H]1c1cccc(C(F)(F)F)c1,"inconclusive: 0.117 µM [inhibitor, full curve, poor fit]",–
CC(=O)N1[C@H](Cc2ccccc2)C=C[C@]1(C)C(=O)NCc1ccc(C)o1,"inconclusive: 0.0828 µM [inhibitor, full curve, poor fit]",–
O=C(O)c1cccc(-n2cccc2/C=C2/NC(=O)N(c3ccc(Cl)cc3)C2=O)c1,"inconclusive: 18.5 µM [inhibitor, single point]",–
Cc1ccccc1NC(=O)C(NS(=O)(=O)c1ccc2c(c1)c(=O)n(C)c(=O)n2C)c1ccccc1 (stereo not given),"inconclusive: 2.62 µM [inhibitor, single point]",–
CN(C)CCCNc1c2c(nc3ccccc13)CCC2,–,inactive: 1.68%
O=C1C2C3C=CC(CC3)C2C(=O)N1c1ccc(Cl)cc1Cl (stereo not given),"inconclusive: 2.94 µM [inhibitor, single point]",–
CC1CCCCN1Cc1c(O)ccc2c(=O)c(-c3ccc(Cl)cc3)coc12 (stereo not given),–,inactive: 45%
O=C(NC(=S)NCCN1CCOCC1)c1ccccc1Br,–,inactive: -15%
COc1ccc(C2CC2/C(C)=N/OC(=O)c2cccs2)cc1 (stereo not given),"inconclusive: 4.15 µM [inhibitor, single point]",–
Cc1c(NC(=O)COC(=O)/C=C/c2cccc(Cl)c2)c(=O)n(-c2ccccc2)n1C,–,inactive: 2.69%
COc1ccccc1NC(=O)C1CCCN(S(=O)(=O)c2ccc3c(c2)CC(C)N3C(C)=O)C1 (stereo not given),–,inactive: 0.267%
COc1ccccc1CN(C)C(=O)c1cc(-c2cccs2)nc2ccccc12,"inconclusive: 5.22 µM [inhibitor, partial curve, poor fit]",–

SMILES,Potency,"activity change, negative = inhibition"
COc1ccc(NC(=O)CN(C)C(=O)CNC(=O)c2cccs2)cc1,–,inactive: 13.6%
CC(=O)n1cc([C@H]2C=C(C(=O)N3CCN(Cc4ccccc4)CC3)O[C@@H](OCCCCO)C2)c2ccccc21,active: 5.22 µM,–
Cc1nn(C(=O)N2CCOCC2)c(C)c1C,"inconclusive: 13.1 µM [inhibitor, partial curve, poor fit]",–
Cc1ccc(OCCOc2cccc(Br)c2)c([N+](=O)[O-])n1,–,inactive: 63.6%
CCOc1ccc(NC(=S)Nc2cccc3cnccc23)cc1,–,inactive: 21.3%
O=C(CSc1nnc2ccc(-c3cccnc3)nn12)Nc1cccc(F)c1,"inconclusive: 2.08 µM [inhibitor, full curve]",–
CCCn1c(SCC(=O)Nc2cccc(NC(C)=O)c2)nnc1C(C)C,active: 4.15 µM,–
CCCN1C/C(=C/c2cccc([N+](=O)[O-])c2)C(=O)/C(=C/c2cccc([N+](=O)[O-])c2)C1,"inconclusive: 3.29 µM [inhibitor, partial curve, poor fit]",–
NC(=S)n1[nH]c(-c2ccc([N+](=O)[O-])cc2)c(N=Nc2ccc(O)cc2)c1=O,–,inactive: -25.8%
COc1cccc(CNC2CCCc3ccccc32)c1OC (stereo not given),active: 2.94 µM,–
Cc1nnsc1C(=O)NC(C)C12CC3CC(CC(C3)C1)C2 (stereo not given),"inconclusive: 5.22 µM [inhibitor, partial curve, poor fit]",–
C=C(C)C(=O)Nc1cccc(C2=NOC3(C2)C[C@@H](C(N)=O)N(C(=O)c2cc([N+](=O)[O-])cc([N+](=O)[O-])c2)C3)c1 (stereo not given in full),"inconclusive: 18.5 µM [inhibitor, single point]",–
COc1ccc(C2CC(c3ccccc3)=NN2c2ccc(N)cc2)cc1 (stereo not given),"inconclusive: 7.38 µM [inhibitor, partial curve, poor fit]",–
COc1cc2[nH]c(=S)nc(NCc3ccccn3)c2cc1OC,"inconclusive: 0.233 µM [inhibitor, partial curve, poor fit]",–
CC(NC(=O)[C@H](C)N1C(=O)N2CCc3c([nH]c4ccccc34)[C@@]2(C)C1=O)c1ccccc1 (stereo not given in full),–,inactive: 1.7%
COCCSc1nnc(NC(=O)COC)s1,–,inactive: 15.3%
Cc1ccc(NC(=O)OCc2cn(-c3ccc(Cl)cc3)nn2)cc1,–,inactive: 23.8%
COc1ccc(C2=NN(C(=O)c3cccc([N+](=O)[O-])c3)C(c3cccc([N+](=O)[O-])c3)C2)cc1 (stereo not given),"inconclusive: 10.4 µM [inhibitor, single point]",–
O=c1[nH]cnc2c1C(c1ccccc1)c1c(nc[nH]c1=O)O2,–,inactive: -24.5%
CCCCCCC(=O)N/N=C/c1ccco1,"inconclusive: 9.28 µM [inhibitor, partial curve, poor fit]",–
O=c1[nH]cnc(O)c1C(c1ccc(F)cc1)c1c(O)nc[nH]c1=O,"inconclusive: 18.5 µM [inhibitor, single point]",–
CC(C)N(C)S(=O)(=O)c1ccc(NC(=O)C2=COCCO2)cc1,–,inactive: 69.3%
